The assay in a line: qHTS Assay for Lipid Storage Modulators in Drosophila S3 Cells.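 For cell number change: cells counted by Cell Tracker Red CMTPX staining in the red channel.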 To be noted: BODIPY lipid droplet fluorescence, 18-24 h; for cell number change: measured here: cell count max response, cells fed with added oleic acid. Put shortly: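 Drosophila S3 cells loaded with oleic acid (400 uM, as added) and compounds at several concentrations; lipid droplets imaged by 488-nm laser-scanning cytometry, 500–530 nm intensity and object ratio to cell channel. Percent activity normalized to 20 uM Triacsin C.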
For orientation: In qHTS, concentration-response curves come from the screen itself.

The mark [1] stands for this setting: measured here: cell number channel AC50, cells fed with added oleic acid.
Where [2] appears, read: measured here: lipid fluorescence (Fed channel) AC50, cells fed with added oleic acid.

The list shows a part of the results. Shown are side measurements of this screen, not its main read-out; they come without a call. Compounds called inactive in the main read-out are mostly missing here. Potencies come from curve fits of mixed quality, noted in brackets.

A word on the AC50: it is the concentration giving half of the maximal activity seen. Lower therefore signals activity at low concentration. `COc1ccc(-c2ccc(C(=O)O)o2)c([N+](=O)[O-])c1`: the cell number change was found to be 19.2%. Further, under setting [1], the AC50 was 1.64 µM [falling, partial curve].
As to `O=C1CCCC2=C1C(c1ccccc1)C1C(=O)c3ccccc3C1=N2` (stereo unspecified), the cell number change was 17.4%. Besides, under setting [2], the AC50 is 2.91 µM [rising, full curve, poor fit].
Turning to `CC(C)(C)NC(=O)C1CCN(C(=O)c2ccco2)CC1`, the cell number change amounted to 5.88%.
As to `Cc1ccc(C(=O)Nc2nnc(C)s2)o1`, the cell number change was -30.3%. Besides, the AC50 under setting [1] is 20.6 µM [falling, single point]. For the same compound, the AC50 under setting [2] was 29.1 µM [falling, single point].
On to `O=C(NC(=S)Nc1ccc(N2CCOCC2)cc1)c1cncc(Br)c1`, for which the AC50 runs as follows: under setting [1], 0.103 µM [falling, full curve, poor fit]; under setting [2], 0.58 µM [rising, partial curve].
With `COC(=O)C1=C(C)N(C)C(=S)NC1c1ccccc1` (stereo unspecified), the cell number change was -10.9%. Moreover, the AC50 under setting [2] is 6.51 µM [falling, single point].
On to `CCC1=NN2C(=N)/C(=C\c3cccn3-c3ccc(OC)cc3)C(=O)N=C2S1`, for which the cell number change worked out at 37.5%. Further, the AC50 under setting [2] was 0.326 µM [falling, partial curve].
As to `Cc1cc(NC(=S)N(CCCN2CCOCC2)Cc2ccco2)ccc1Cl`, the cell number change is -0.617%.
For the compound `O=C(c1cnn(Cc2ccccc2)c1)N1CCN(S(=O)(=O)/C=C/c2ccccc2)CC1`, the cell number change is -13.2%. In addition, the AC50 under setting [2] was 0.082 µM [rising, partial curve, poor fit].
As to `CC(=O)Oc1ccc(C(=O)Nc2cccc3c2CCCC3)cc1`, the cell number change was -12.4%.
For `O=C(Cc1cccs1)NNC(=O)C12CC3CC(CC(C3)C1)C2`, the cell number change came to 55.7%. For the same compound, the AC50 under setting [1] was 16.4 µM [rising, single point].
For `CN(CC(=O)NC(=O)NCc1ccccc1)CC(=O)Nc1ccc(Cl)c(C(F)(F)F)c1`, the cell number change was -27.2%.
`O=C(OCc1nc2ccc(Cl)cc2n1CCO)c1ccccc1`: the cell number change was -2.88%. Also, under setting [2], the AC50 is 0.116 µM [falling, full curve, poor fit].
For `CCOC(=O)C(=CNc1cc(C)nn1-c1ccc(C)cc1)C(=O)OCC`, the cell number change was determined as 22.6%. Under setting [2], the AC50 was 1.64 µM [rising, partial curve].
Take `Cc1cccc(/C=N/NC(=O)c2ccc3c(c2)OCCO3)c1O`: the cell number change was -38.2%. Also, the concentration at half-maximal activity (AC50) under setting [1] was 2.06 µM [falling, partial curve]. Besides, under setting [2], the half-maximal activity concentration (AC50) is 6.51 µM [falling, single point].
For the compound `O=C(c1noc2c1CCCC2)N1CCN(C(c2ccccc2)c2ccccc2)CC1`, the cell number change is -0.283%.
In the case of `O=C(O)CCc1ccc(S(=O)(=O)Nc2cc(C(F)(F)F)ccc2N2CCCC2)cc1`, the AC50 under setting [2] is 4.61 µM [rising, full curve].
`COc1ccc(C(C2C(=O)CC(C)(C)CC2=O)C2C(=O)CC(C)(C)CC2=O)cc1CO`: the cell number change worked out at 70.9%. Further, the AC50 under setting [1] is 23.1 µM [rising, partial curve, poor fit]. Also, the AC50 under setting [2] is 20.6 µM [rising, partial curve].
On to `c1ccc(COc2ccc(OCCCNC3CCCC3)cc2)cc1`, for which the cell number change was 8.75%. Moreover, the AC50 under setting [2] is 3.66 µM [falling, partial curve].
Regarding `CC(=O)c1c(C)[nH]c(C(=O)Nc2cc(C)cc(C)c2)c1C`, the cell number change was found to be 22.3%. Moreover, the AC50 under setting [1] is 0.92 µM [rising, full curve, poor fit]. Moreover, the half-maximal activity concentration (AC50) under setting [2] was 25.9 µM [falling, single point].
As to `COc1ccc(OC)c(NC(=O)COC(=O)CCC2CCCC2)c1`, the cell number change was -14.6%.
`CCc1ccc(/C=C2\SC(=S)N(CCC(=O)NCCCN3CCOCC3)C2=O)cc1`: the cell number change turned out to be 13%. Also, the AC50 under setting [2] is 2.59 µM [rising, single point].
As to `CNC(=S)N(CCc1c(C)[nH]c2ccc(OC)cc12)Cc1cc(OC)c(OC)c(OC)c1`, the cell number change is -4.52%. For the same compound, the AC50 under setting [2] is 1.3 µM [rising, partial curve].
For `CC1=C[C@H](C)[C@H](c2c(F)cccc2Cl)CC1=O`, the cell number change is -2.59%. Moreover, the AC50 under setting [2] is 0.651 µM [rising, partial curve, poor fit].
In the case of `O=C(CSc1nc2ccc(Cl)cc2[nH]1)c1ccc2c(c1)OCO2`, under setting [2], the AC50 is 20.6 µM [falling, partial curve].
For the compound `Cc1ccc2nc(NC(=O)CSc3nc4c(c(=O)n3C)SC(C)C4)sc2c1` (stereo unspecified), the cell number change is -32.9%. Besides, the AC50 under setting [1] was 29.1 µM [falling, single point]. Moreover, under setting [2], the half-maximal activity concentration (AC50) was 29.1 µM [falling, single point].
For `Nc1cccc(C(=O)OCC(=O)NC2CCCc3ccccc32)c1` (stereo unspecified), the cell number change is -65.4%. For the same compound, the concentration at half-maximal activity (AC50) under setting [1] is 5.8 µM [falling, partial curve, poor fit]. Also, the AC50 under setting [2] is 6.51 µM [falling, partial curve, poor fit].
Turning to `CC(NS(=O)(=O)c1ccc(Br)s1)c1ccccc1` (stereo unspecified), under setting [2], the AC50 was 29.1 µM [falling, single point].
Turning to `CCc1cccc(NC(=O)CCNS(=O)(=O)c2cccc3nonc23)c1`, the cell number change came out at 17.8%. For the same compound, the AC50 under setting [2] is 3.26 µM [falling, single point].
As for `CCCCCCC1(C)NC(=O)N(C(C)C(=O)Nc2ccc(N3CCOCC3)cc2)C1=O` (stereo unspecified), the cell number change is 14.9%. Moreover, under setting [2], the AC50 is 23.1 µM [rising, single point].
In the case of `COc1ccc(NC(=O)COC(=O)C2CC(=O)N(c3ccc(C)cc3)C2)cc1` (stereo unspecified), the cell number change was determined as 30.5%. Moreover, the AC50 under setting [1] was 20.6 µM [rising, single point]. The AC50 under setting [2] is 0.206 µM [rising, single point].
On to `CCN(C(=O)CN1C(=O)NC(CCSC)C1=O)C1CCS(=O)(=O)C1` (stereo unspecified), for which the cell number change worked out at 2.88%. In addition, the AC50 under setting [2] is 0.164 µM [rising, full curve, poor fit].
On to `CCOC(=O)c1ccc(N=CC2=C(O)CC(C)(C)CC2=O)cc1`, for which the cell number change is -2.48%.
In the case of `CCCC(=O)Nc1ccc(C=C(C(C)=O)C(C)=O)cc1`, the cell number change is -20.2%. Moreover, under setting [2], the AC50 is 9.2 µM [falling, partial curve, poor fit].
As to `CC1CCC(C(=O)NC(C(=O)N2CCN(c3ccccn3)CC2)C(C)C)CC1` (stereo unspecified), the cell number change was -17%.
`O=C(NNC(=S)NC(=O)c1ccccc1Cl)c1cccc([N+](=O)[O-])c1`: the cell number change is 31.6%. Besides, under setting [2], the concentration at half-maximal activity (AC50) is 1.84 µM [rising, full curve].
As for `Cc1c(C)n(Cc2ccc(Cl)cc2)c2ccc(C(=O)NCCN3CCOCC3)cc12`, the AC50 under setting [2] was 4.11 µM [rising, partial curve].
For `COc1ccc2oc(C(=O)OCC(=O)NC(C)c3ccccc3)c(C)c2c1` (stereo unspecified), the cell number change was 26.6%. The AC50 under setting [2] is 6.51 µM [rising, single point].
`Cc1ccc(SCC(=O)NNC(=O)c2ccc(S(C)(=O)=O)cc2)cc1`: the cell number change is 24.4%. Further, under setting [1], the AC50 was 0.116 µM [rising, full curve, poor fit].
As for `Cc1ccc(S(=O)(=O)NCc2ccccc2)cc1C(=O)NC1CCCCC1`, the cell number change was -21.5%. The AC50 under setting [2] is 35.5 µM [falling, single point].
With `COCc1c(C(=O)N/N=C/c2ccc(C)o2)nnn1-c1nonc1N`, the cell number change is -7.62%. Further, under setting [2], the AC50 is 0.206 µM [falling, single point].
As to `Cn1c(=O)[nH]c(=O)c2c1nc(N1CCCCCC1)n2CCCSc1nnnn1-c1ccccc1`, the cell number change stood at 18.9%. Moreover, the half-maximal activity concentration (AC50) under setting [1] is 2.59 µM [rising, single point]. Further, the AC50 under setting [2] is 3.66 µM [rising, partial curve].
`Cc1ncc(CO)c(/C=N/Nc2ccc(C(F)(F)F)cn2)c1O`: the cell number change was 8.82%. The concentration at half-maximal activity (AC50) under setting [2] was 0.231 µM [falling, partial curve, poor fit].
As to `Cc1nnc(Cn2cnc3c2c(=O)n(C)c(=O)n3C)o1`, the AC50 under setting [2] was 2.91 µM [rising, single point].
Take `CCOC(=O)CNC(=O)CNC(=O)c1nn(-c2ccc(OC)c(OC)c2)c(=O)c2ccccc12`: the cell number change is -2.13%. Moreover, the AC50 under setting [1] is 0.731 µM [falling, single point].
On to `Cc1ccc(C(=O)Nc2cccc3ncccc23)cc1[N+](=O)[O-]`, for which the cell number change came to 167%.
Turning to `Cc1cccc(NC(=S)N2CCC(C(N)=O)(N3CCCCC3)CC2)c1C`, the cell number change came out at 24.3%. In addition, the half-maximal activity concentration (AC50) under setting [2] is 0.517 µM [falling, single point].
Regarding `CCc1ccccc1NNC(=O)c1cc(C)on1`, the cell number change was 13.9%. Under setting [2], the AC50 was 0.366 µM [rising, full curve, poor fit].
For the compound `COc1ccc(NC(=O)CSc2nnc(NC(C)=O)s2)c([N+](=O)[O-])c1`, the cell number change is -35.8%. Besides, the concentration at half-maximal activity (AC50) under setting [1] is 29.1 µM [falling, single point]. Further, under setting [2], the AC50 is 29.1 µM [falling, single point].
Take `CCCN(CC(=O)Nc1ccccc1C)C(=O)c1ccc(NC2CC2)c([N+](=O)[O-])c1`: the cell number change was determined as 47%. Moreover, the AC50 under setting [1] is 1.84 µM [rising, full curve].
On to `NS(=O)(=O)c1cccc(NC(=O)CSc2n[nH]c(-c3cccs3)n2)c1`, for which the cell number change amounted to 18.9%. Under setting [2], the AC50 is 16.4 µM [rising, partial curve, poor fit].
In the case of `CC(C)(C)OC(=O)N[C@@H](/C=C/c1ccccc1)C(=O)OC(C)(C)C`, the cell number change was -4.14%. In addition, under setting [2], the AC50 is 0.00461 µM [rising, full curve, poor fit].
With `O=S(=O)(NCc1ccccc1)[C@@H]1CC2C=CC1C2` (stereo partly specified), the cell number change is 5.78%. Further, the AC50 under setting [2] is 5.8 µM [rising, full curve, poor fit].
Regarding `Cc1ccc(C)c(NC(=S)NCc2ccc3[nH]c4c(c3c2)CCCC4)c1`, the cell number change is -69.8%. Further, under setting [1], the AC50 was 14.6 µM [falling, partial curve]. Under setting [2], the AC50 was 16.4 µM [falling, partial curve].
Turning to `COc1ccc(/C=C\C(=O)NCC(=O)N/N=C/c2cccc(OC)c2O)cc1`, the cell number change worked out at 28.7%.
On to `COc1ccc(N(CC(=O)Nc2ccc3c(c2)OCCO3)S(=O)(=O)c2cccnc2)cc1`, for which the cell number change was 73.8%. Also, the AC50 under setting [1] is 0.259 µM [rising, full curve]. Further, the AC50 under setting [2] was 0.291 µM [rising, full curve].
Consider `CC(=O)c1cnc(Nc2nc(C)c3ccc(C)cc3n2)nc1C`, for which the cell number change came out at 36.6%. The AC50 under setting [1] is 10.3 µM [rising, single point].
For the compound `CC(=O)Nc1ccc(S(=O)(=O)Nc2ccc(N3CCOCC3)cc2)cc1`, the cell number change was determined as 11.9%. The half-maximal activity concentration (AC50) under setting [2] is 29.1 µM [rising, single point].
For `O=C(CN1C(=O)/C(=C\c2ccco2)SC1=S)Nc1ccc(O)cc1C(=O)O`, the cell number change came to 11.6%.
With `CC1(c2ccccc2)CC2CC(c3ccccc3)N1O2` (stereo unspecified), the cell number change was -16.5%. Also, the AC50 under setting [1] was 1.46 µM [falling, partial curve]. Further, the AC50 under setting [2] is 6.51 µM [falling, single point].

Values taken from PubChem BioAssay AID2685 (National Center for Advancing Translational Sciences (NCATS), 2010).
